From PMC7819943, “Rice protein-binding microarrays: a tool to detect cis-acting elements near promoter regions in rice” come the findings set out here.

The chains behind the UniProt entries cited, without tags or fusion partners.
UniProt Q0JBA9, entry or part of it: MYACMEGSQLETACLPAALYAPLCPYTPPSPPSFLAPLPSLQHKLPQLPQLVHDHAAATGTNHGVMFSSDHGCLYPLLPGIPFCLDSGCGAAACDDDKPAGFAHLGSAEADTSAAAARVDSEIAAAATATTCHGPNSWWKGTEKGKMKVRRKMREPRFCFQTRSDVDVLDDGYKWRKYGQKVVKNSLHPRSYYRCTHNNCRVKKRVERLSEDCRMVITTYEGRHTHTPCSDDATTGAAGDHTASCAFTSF

The other results are listed elsewhere or left out.

The test addresses OsWRKY34 (Oryza sativa, UniProt Q0JBA9 1-250). Put plainly: protein-binding microarray (RPBM); PBS, 2% BSA, 51.3 ng/ul salmon testes DNA, 50 uM zinc acetate, 200 nM TF, 25 C, 1 h; high values mean tight binding. Conditions: protein: recombinant; tags: N-terminal polyhistidine and DsRed monomer fusion (pET32a); label: CyDye5-dUTP incorporated in the synthesized complementary strand; 3' TTTTT single-stranded linker to array surface; dsDNA, one strand shown. The method in brief:
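Binding signal is reported as fluorescence intensity per feature (arbitrary units) from an Axon 4000B scanner. Incubation used 200 nM of each Ni–NTA-purified, N-terminally polyhistidine- and DsRed-fused transcription factor from E. coli BL21-CodonPlus on a double-stranded custom Agilent array for 1 h at 25 °C, with 50 µM zinc acetate in the buffer, followed by washing.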
Turning to “TTGGTTTTCCGGCCGTTTTCGATCGCCTGACGCCCAGGAACGGAGTCACCTAGTGCAG”, the binding signal is 9590 fluorescence intensity (a.u.).
“ACTACAACGAGTACCTCTCCCACTACATTGGCCTGCATCTCGGAGTCACCTAGTGCAG”: the binding signal was 9690 fluorescence intensity (a.u.).
To “ACACCTTTCTCGTCTCTACTTCCTTTGGTCATTTTGTCTCCGGAGTCACCTAGTGCAG” belongs 14200 fluorescence intensity (a.u.); to “TCATTCTAGCATTTCCCACATTCTATCTAGATTCATTAACCGGAGTCACCTAGTGCAG”, 10100 fluorescence intensity (a.u.); to “ATGGCCGCTGTCTTATGTCGTCTCGTTCAAATAAAATCTCCGGAGTCACCTAGTGCAG”, 8370 fluorescence intensity (a.u.).
Take “GTTGCCCAAGTTGGTCGTCGGAAGGCTGGAACCTAAGTTACGGAGTCACCTAGTGCAG”: the binding signal was 8150 fluorescence intensity (a.u.).
Next, “ACGCCACGCGCGCGAGCGAGCACTAGCGATCGATCAGGCCCGGAGTCACCTAGTGCAG”: 9390 fluorescence intensity (a.u.); “TGAATCATAGTTAGGATTGTGTTTTTTCTTTCTTTTTACACGGAGTCACCTAGTGCAG”: 8250 fluorescence intensity (a.u.).
Consider “GGCAACAACGGCCTCCACCGCCATCACTCCGGCACCCTCACGGAGTCACCTAGTGCAG”, for which the binding signal was 8220 fluorescence intensity (a.u.).
Consider “GTCTTCTCTCGTAGTCGGGTCTTCCTGTCGTCGGGTTCTTCGGAGTCACCTAGTGCAG”, for which the binding signal was 11100 fluorescence intensity (a.u.).
Regarding “GCTCCCTGCTGCCATATCCTATCATCTCCTCTCTTCCTCTCGGAGTCACCTAGTGCAG”, the binding signal is 8540 fluorescence intensity (a.u.).
To “ATCCGTTGCCCTCGCTCCTATAACTGCGTTGACATGTCGCCGGAGTCACCTAGTGCAG” belongs 9550 fluorescence intensity (a.u.); to “GGAATGGGGCATTGTCTAGTCCATGATTAGGTTGGTTTTTCGGAGTCACCTAGTGCAG”, 12000 fluorescence intensity (a.u.).
Next, “CCCTAAGTTACATTCTCTACAATATTGTTCTCCAAAATTCCGGAGTCACCTAGTGCAG”: 8080 fluorescence intensity (a.u.); “ACCAATATTCCATACTTAAATTTAATGCTACTTATCTCACCGGAGTCACCTAGTGCAG”: 8230 fluorescence intensity (a.u.); “GAACTAACGCGCTTCTCATTTTCATACTCACCATCAAATACGGAGTCACCTAGTGCAG”: 8200 fluorescence intensity (a.u.).
“AATTTGTTTCCGCCGCTGCTGCACGCGCCGTGAGGCGTGACGGAGTCACCTAGTGCAG”: the binding signal is 8480 fluorescence intensity (a.u.).
For the sequence “CCCCACAGCGCAGTGTCCCACGCGGCCAGCACGCACTCTCCGGAGTCACCTAGTGCAG”, the binding signal was 8400 fluorescence intensity (a.u.).
As to “GCCCATCTCTTATTCCTCGTACCCCTTTTTTTTTTTTGCCCGGAGTCACCTAGTGCAG”, the binding signal was 9180 fluorescence intensity (a.u.).
For the sequence “CCATCATTAATAGTTCTGGACCATCCAATATATACTGTCTCGGAGTCACCTAGTGCAG”, the binding signal was 8840 fluorescence intensity (a.u.).
Take “ACTCCACACCCACACTACTCCTCCCAGGCTGCCTGCCTAACGGAGTCACCTAGTGCAG”: the binding signal was 9330 fluorescence intensity (a.u.).
Consider “GGTTGAACTGAATCATATCAAAGCCAGGTCAACACAGAAACGGAGTCACCTAGTGCAG”, for which the binding signal was 9340 fluorescence intensity (a.u.).
Next, “CCGTGTCCGTTATCGTCCGTCGGTTTCCGTGTCCGATTCTCGGAGTCACCTAGTGCAG”: 9950 fluorescence intensity (a.u.).
Regarding “ATTATCCTGATCAAAATTCCCGCAATTCCTTAACACATGTCGGAGTCACCTAGTGCAG”, the binding signal is 10200 fluorescence intensity (a.u.).
For “ATCGCTACTCCTTTTTTTTTTTGGAAAAATATCCAAAAATCGGAGTCACCTAGTGCAG”, the binding signal was 8130 fluorescence intensity (a.u.).
As to “GCAAAAGCCAAACTGAATTCCCGACGCGTGCGCGCGCGCACGGAGTCACCTAGTGCAG”, the binding signal was 8180 fluorescence intensity (a.u.).
With “TTAGGATTCTAGTATTAGCCTTTTCGTTATCGTTGACCAACGGAGTCACCTAGTGCAG”, the binding signal is 13300 fluorescence intensity (a.u.).
Take “TCTCACATGTTTGACCATTCGCCTTATTCAAAAATTTTATCGGAGTCACCTAGTGCAG”: the binding signal was 12300 fluorescence intensity (a.u.).
For “GACACGCCAACACACACCATGATCATGCCATGCTTTTCCTCGGAGTCACCTAGTGCAG”, the binding signal was 8430 fluorescence intensity (a.u.).
With “CGCCACCGCCACCATCGCCGCCGCCGCCGCGAAGCTCGCCCGGAGTCACCTAGTGCAG”, the binding signal was 8720 fluorescence intensity (a.u.).
“TCGACTCCTCACTCATCCTACTCGGCAACTCACTCTGCTCCGGAGTCACCTAGTGCAG”: the binding signal is 9450 fluorescence intensity (a.u.).
As for “CCCTGCTCGCATCTCCTTAGCCTAGCCCATCTCTCATCCACGGAGTCACCTAGTGCAG”, the binding signal was 10700 fluorescence intensity (a.u.).
Next, “GGCCTGCACACGGAATCTCGCCTGATATCAGGCCCATCTCCGGAGTCACCTAGTGCAG”: 8220 fluorescence intensity (a.u.).
Take “CAACCTTGCACCAGTTGGGCTCGTCCATGCTCCATACCCCCGGAGTCACCTAGTGCAG”: the binding signal was 8560 fluorescence intensity (a.u.).
Next, “ACTCGCGCCGTCAAACCACCACCGCCTCCGTCTCCTTCTCCGGAGTCACCTAGTGCAG”: 12100 fluorescence intensity (a.u.).
As for “CTATGTGTCTCTTGCCGGGTTCTTCTTCTCGGGACTCATGCGGAGTCACCTAGTGCAG”, the binding signal was 8230 fluorescence intensity (a.u.).
For the sequence “CCACCACCCTTTGGTTTGCTTCTATGCTTCACAGGTGCAGCGGAGTCACCTAGTGCAG”, the binding signal is 8220 fluorescence intensity (a.u.).
Regarding “CGATTTGGGTAGTATCGTGGTTTCAGCCGATCTTACTTGACGGAGTCACCTAGTGCAG”, the binding signal was 9410 fluorescence intensity (a.u.).
With “TTTTTATTAAAACGTTCGACCACTCGTCTTATTCAAATTTCGGAGTCACCTAGTGCAG”, the binding signal was 10100 fluorescence intensity (a.u.).
Next, “GCAGCCTTGAACCCTTGATTAGCCTTGTCATGTAAACCTACGGAGTCACCTAGTGCAG”: 9220 fluorescence intensity (a.u.).
For the sequence “AGCTCCACATACCACCATCTATTCATTTTAACACAAAGATCGGAGTCACCTAGTGCAG”, the binding signal was 8500 fluorescence intensity (a.u.).
As for “TGCATGCTGACCACGGCAACCGGTTGGGTCCCCGTGGGCTCGGAGTCACCTAGTGCAG”, the binding signal is 8220 fluorescence intensity (a.u.).
